For ten targets, log2 fold change results are on record in the supplement of paper PMC10849652.

Amino acid sequences for entries named in this document (tags omitted). A change or cut given only in a name is not applied to a line headed by its entry.
UniProt O95279: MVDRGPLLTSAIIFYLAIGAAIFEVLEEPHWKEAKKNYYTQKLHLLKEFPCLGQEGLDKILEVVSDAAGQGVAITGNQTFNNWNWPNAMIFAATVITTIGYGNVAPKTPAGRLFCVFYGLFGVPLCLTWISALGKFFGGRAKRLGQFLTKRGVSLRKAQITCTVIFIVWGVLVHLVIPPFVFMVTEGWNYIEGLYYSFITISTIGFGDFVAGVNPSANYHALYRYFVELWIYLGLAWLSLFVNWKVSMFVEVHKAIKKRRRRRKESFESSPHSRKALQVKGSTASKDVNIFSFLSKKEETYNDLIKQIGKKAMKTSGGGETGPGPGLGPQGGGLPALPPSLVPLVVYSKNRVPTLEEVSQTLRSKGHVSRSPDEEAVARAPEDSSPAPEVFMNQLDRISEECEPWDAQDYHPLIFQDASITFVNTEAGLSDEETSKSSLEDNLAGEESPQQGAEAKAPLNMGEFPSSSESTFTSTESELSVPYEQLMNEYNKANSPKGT
UniProt Q8IXQ5, whole entry, looked up: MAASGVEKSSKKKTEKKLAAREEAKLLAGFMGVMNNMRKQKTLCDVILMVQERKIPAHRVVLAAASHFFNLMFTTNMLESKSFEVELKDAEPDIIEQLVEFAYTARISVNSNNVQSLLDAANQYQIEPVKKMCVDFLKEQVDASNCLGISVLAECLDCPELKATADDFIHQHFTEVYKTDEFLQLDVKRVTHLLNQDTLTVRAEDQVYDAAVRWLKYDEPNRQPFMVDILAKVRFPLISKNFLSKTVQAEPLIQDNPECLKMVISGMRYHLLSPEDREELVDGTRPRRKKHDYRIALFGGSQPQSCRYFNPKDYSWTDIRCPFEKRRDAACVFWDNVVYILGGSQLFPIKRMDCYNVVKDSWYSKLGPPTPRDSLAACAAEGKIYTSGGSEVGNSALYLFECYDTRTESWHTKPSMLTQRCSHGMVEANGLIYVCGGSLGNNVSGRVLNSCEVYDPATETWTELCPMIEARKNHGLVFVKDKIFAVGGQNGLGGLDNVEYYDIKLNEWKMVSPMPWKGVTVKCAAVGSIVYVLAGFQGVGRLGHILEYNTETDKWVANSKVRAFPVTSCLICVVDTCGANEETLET
UniProt Q15811: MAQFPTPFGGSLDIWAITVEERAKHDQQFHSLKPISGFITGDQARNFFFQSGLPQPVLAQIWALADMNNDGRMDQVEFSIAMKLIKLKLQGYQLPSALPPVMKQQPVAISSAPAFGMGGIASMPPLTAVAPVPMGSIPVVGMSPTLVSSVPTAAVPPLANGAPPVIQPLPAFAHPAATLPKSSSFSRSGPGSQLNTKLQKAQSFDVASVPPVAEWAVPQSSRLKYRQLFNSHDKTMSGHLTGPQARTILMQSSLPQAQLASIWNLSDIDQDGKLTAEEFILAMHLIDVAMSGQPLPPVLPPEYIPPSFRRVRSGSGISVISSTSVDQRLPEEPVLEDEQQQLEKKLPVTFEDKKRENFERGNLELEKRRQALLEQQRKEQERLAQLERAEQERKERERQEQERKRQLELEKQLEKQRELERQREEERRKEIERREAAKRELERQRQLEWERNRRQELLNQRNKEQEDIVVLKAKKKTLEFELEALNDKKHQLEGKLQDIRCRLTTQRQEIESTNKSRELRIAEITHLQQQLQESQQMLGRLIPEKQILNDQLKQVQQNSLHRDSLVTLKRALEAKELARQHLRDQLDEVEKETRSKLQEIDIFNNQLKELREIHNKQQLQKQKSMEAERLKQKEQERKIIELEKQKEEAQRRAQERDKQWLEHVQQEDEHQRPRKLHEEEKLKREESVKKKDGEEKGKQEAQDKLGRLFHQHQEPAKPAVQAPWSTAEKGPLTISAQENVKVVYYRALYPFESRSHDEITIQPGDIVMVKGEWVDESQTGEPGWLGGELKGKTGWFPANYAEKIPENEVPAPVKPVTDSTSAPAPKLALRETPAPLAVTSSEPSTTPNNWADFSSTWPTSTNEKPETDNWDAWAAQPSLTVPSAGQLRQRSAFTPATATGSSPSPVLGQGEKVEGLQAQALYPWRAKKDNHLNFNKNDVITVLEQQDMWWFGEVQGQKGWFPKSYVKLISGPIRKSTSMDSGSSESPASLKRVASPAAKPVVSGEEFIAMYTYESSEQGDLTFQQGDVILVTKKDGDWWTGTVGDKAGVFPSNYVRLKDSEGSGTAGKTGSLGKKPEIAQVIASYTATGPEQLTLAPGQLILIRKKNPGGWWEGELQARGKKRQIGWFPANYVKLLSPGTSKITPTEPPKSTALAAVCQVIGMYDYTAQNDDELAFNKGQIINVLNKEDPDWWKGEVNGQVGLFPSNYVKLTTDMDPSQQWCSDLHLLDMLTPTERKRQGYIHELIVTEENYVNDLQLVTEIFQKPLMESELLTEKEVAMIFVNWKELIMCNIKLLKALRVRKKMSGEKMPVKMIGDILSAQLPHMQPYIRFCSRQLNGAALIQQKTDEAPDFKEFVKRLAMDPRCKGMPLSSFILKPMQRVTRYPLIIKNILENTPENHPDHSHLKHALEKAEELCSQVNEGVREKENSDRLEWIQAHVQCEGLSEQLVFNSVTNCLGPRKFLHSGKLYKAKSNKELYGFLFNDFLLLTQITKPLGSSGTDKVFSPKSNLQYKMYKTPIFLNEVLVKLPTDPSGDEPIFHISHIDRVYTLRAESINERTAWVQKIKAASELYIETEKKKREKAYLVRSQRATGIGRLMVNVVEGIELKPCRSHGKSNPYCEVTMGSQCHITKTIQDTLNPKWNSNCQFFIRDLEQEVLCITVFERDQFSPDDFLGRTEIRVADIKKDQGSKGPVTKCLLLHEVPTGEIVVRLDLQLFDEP
UniProt P0C870: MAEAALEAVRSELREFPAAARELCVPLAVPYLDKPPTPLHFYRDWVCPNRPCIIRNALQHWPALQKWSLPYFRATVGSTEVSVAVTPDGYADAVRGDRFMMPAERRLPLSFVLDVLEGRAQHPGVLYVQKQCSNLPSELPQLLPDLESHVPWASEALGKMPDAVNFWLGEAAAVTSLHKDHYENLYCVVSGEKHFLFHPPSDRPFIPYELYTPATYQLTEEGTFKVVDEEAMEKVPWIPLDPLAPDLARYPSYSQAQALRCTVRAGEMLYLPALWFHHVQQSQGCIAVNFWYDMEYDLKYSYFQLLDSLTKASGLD
UniProt O15550, whole entry, looked up: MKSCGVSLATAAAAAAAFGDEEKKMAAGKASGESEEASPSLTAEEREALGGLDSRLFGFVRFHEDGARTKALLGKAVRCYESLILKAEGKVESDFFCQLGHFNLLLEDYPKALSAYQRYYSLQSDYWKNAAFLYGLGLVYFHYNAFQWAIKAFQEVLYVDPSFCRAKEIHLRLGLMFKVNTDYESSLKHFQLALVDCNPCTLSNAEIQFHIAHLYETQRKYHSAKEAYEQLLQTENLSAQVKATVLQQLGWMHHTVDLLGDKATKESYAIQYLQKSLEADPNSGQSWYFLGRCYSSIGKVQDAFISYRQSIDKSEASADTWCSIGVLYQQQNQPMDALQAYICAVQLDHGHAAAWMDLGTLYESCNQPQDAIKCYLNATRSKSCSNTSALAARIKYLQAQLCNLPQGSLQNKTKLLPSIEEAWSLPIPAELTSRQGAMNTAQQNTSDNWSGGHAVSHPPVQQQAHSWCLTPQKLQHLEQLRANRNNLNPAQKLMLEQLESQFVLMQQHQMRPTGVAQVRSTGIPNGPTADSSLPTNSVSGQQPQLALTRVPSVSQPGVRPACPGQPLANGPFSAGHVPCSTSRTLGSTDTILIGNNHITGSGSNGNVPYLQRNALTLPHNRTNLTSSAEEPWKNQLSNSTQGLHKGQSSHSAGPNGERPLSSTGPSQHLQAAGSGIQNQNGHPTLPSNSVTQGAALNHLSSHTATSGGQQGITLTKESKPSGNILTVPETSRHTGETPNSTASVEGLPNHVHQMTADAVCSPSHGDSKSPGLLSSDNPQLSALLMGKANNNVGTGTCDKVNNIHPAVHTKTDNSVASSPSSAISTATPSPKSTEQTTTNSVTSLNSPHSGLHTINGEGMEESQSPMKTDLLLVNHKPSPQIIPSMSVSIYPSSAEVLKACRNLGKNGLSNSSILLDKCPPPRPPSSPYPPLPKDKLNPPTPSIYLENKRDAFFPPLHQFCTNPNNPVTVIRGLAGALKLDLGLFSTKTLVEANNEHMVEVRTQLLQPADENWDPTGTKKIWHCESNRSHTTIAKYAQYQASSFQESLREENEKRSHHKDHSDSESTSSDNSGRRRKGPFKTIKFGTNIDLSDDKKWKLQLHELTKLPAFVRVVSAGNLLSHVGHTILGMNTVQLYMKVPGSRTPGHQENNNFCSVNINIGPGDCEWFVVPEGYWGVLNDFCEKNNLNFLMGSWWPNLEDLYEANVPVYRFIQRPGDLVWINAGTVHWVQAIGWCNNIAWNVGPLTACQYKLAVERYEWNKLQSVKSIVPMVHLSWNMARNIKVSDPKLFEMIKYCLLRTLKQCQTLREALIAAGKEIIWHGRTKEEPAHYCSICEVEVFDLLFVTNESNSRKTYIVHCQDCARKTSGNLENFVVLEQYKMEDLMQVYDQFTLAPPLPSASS
UniProt Q9NQT8: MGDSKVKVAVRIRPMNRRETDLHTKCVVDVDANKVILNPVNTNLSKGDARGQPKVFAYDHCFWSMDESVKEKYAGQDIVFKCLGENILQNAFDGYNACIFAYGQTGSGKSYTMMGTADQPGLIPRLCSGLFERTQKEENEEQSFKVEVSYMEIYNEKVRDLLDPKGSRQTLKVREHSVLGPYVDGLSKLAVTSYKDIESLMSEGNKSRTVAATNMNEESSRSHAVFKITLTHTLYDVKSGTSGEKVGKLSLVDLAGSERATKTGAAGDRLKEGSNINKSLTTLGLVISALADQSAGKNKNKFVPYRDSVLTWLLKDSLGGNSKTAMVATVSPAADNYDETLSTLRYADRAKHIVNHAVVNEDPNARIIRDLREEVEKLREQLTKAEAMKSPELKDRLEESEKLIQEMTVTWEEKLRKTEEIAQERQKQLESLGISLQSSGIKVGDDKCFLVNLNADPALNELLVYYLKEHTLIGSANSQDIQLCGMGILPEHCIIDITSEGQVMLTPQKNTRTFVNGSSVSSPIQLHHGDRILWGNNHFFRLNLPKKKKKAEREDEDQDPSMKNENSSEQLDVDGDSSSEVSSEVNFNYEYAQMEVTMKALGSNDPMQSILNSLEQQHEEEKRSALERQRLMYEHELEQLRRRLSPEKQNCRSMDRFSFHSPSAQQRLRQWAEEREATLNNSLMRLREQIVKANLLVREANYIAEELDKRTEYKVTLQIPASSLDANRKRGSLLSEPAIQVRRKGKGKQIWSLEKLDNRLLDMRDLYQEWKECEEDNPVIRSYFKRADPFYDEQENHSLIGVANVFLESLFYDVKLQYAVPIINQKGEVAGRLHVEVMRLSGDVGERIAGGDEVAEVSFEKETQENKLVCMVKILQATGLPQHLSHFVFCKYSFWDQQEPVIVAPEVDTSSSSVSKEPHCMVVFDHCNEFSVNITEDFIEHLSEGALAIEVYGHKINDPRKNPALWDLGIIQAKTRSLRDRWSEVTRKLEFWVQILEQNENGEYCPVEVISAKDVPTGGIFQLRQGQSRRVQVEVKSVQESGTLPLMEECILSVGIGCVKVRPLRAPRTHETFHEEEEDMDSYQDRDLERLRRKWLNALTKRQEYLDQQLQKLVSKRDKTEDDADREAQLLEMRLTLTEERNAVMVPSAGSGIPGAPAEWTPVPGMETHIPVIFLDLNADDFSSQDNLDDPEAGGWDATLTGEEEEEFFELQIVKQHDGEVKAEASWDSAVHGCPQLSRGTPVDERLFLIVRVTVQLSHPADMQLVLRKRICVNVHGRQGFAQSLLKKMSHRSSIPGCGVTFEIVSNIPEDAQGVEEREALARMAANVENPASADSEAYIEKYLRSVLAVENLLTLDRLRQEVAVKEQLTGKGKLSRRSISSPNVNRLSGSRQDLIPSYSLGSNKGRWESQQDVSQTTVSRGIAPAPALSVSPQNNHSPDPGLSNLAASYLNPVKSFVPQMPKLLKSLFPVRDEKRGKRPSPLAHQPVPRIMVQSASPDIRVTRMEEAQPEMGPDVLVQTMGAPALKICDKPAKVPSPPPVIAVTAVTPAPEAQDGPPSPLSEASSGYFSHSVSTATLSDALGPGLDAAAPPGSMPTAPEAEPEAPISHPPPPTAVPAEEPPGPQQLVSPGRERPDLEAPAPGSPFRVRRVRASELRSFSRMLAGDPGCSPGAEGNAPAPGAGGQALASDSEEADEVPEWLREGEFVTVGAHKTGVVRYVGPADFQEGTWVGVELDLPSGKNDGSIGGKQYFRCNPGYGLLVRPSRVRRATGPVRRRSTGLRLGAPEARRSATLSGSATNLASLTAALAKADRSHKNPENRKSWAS

Some of the results follow.

Common to all, as to assay: log2 fold change, soluble protein after heating vs DMSO (PISA); higher = thermal stabilisation; K562 cells, 10 uM, 30 min; active = over 0.2 and 3.5 SD of the protein, either way, in both replicates (recomputed)
Compound in assay [1]: CC1=C(C=C(C=C1)NC(=O)C2=CC(=CC=C2)C(C)(C)C#N)NC3=CC4=C(C=C3)N=CN(C4=O)C
The method in brief:
(§1)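 K562 cells at 2×10^6 cells/mL were exposed to 10 μM compound for 30 min, then aliquots were heated for 3 min across 48°C-58°C, pooled, and extracted in PBS containing 0.5% NP-40 at 4°C. The supernatant after 21,000xg for 90 min was taken as soluble protein and measured by TMTpro 16plex LC-MS/MS with channel sums equalised. Thermal stability is reported relative to control samples, with values from duplicates. Fold changes are given on a log2 scale.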

Compound in assay [2]: CC1=NC(=CC=C1)C2=C(N=C(N2)C(C)(C)C)C3=CC4=NC=CN=C4C=C3
The method in brief: as §1

Compound in the next assay: CCCCN(Cc1ccc(C(=O)NO)cc1)C(=O)Nc1ccccc1 [Nexturastat A]
The method in brief:
as §1

Compound in a further assay: CCCS(=O)(=O)Nc1ccc(F)c(C(=O)c2c[nH]c3ncc(-c4ccc(Cl)cc4)cc23)c1F [vemurafenib]
Put shortly: as §1

Compound in another assay: CCN(CCCOc1ccc2c(Nc3cc(CC(=O)Nc4cccc(F)c4)[nH]n3)ncnc2c1)CCOP(=O)(O)O [barasertib]
The method in brief: as §1

Compound in assay [3]: CC[C@H](C)N1C=C(C2=C(C=C(C=C21)C3=CN=C(C=C3)N4CCNCC4)C(=O)NCC5=C(C=C(NC5=O)C)C)C
The method in brief:
as §1

Compound in the next assay: CC[C@H](C)[C@@H](C(=O)N[C@@H]([C@@H](C)O)C(=O)N[C@@H](CC(C)C)C(=O)[C@]1(CO1)C)NC(=O)[C@H]([C@@H](C)CC)N(C)C(=O)C [epoxomicin]
Put shortly:
as §1

Compound in assay [4]: CN(C)CC(=O)Nc1ccc2[nH]c(=O)c3ccccc3c2c1
The method in brief: as §1

Compound in another assay: CN(CCOC1=CC=C(C=C1)C[C@H]2C(=O)NC(=O)S2)C3=CC=CC=N3 (racemic) [rosiglitazone]
The method in brief: as §1

Compound in assay [5]: CN1C2=C(C3=C1C(=O)N(N=C3)CC4=CC(=CC=C4)N)SC(=C2)S(=O)C
The method in brief: as §1

Compound in assay [6]: CC1=CC=C(C=C1)SC2=C3C=C(SC3=CN=C2)C(=O)N
Put shortly:
as §1

Compound in assay [7]: CCCS(=O)(=O)Nc1ccc(F)c(C(=O)c2c[nH]c3ncc(Cl)cc23)c1F
The method in brief: as §1

Compound in assay [8]: CCCc1cc(C)[nH]c(=O)c1CNC(=O)c1cc(-c2ccnc(N3CCN(C)CC3)c2)cc2c1cnn2C(C)C
The method in brief:
as §1

Compound in a further assay: CCN(CC)Cc1ccc2cc(COC(=O)Nc3ccc(C(=O)NO)cc3)ccc2c1 [givinostat]
Put shortly:
as §1

Compound in assay [9]: CC[C@@H]1C(=O)N(C)c2cnc(Nc3ccc(C(=O)NC4CCN(C)CC4)cc3OC)nc2N1C1CCCC1
The method in brief:
as §1

Compound in a further assay: CC[C@@H]1C(=O)N(C)c2cnc(Nc3ccc(C(=O)N[C@H]4CC[C@H](N5CCN(CC6CC6)CC5)CC4)cc3OC)nc2N1C(C)C [volasertib]
The method in brief:
as §1

Compound in assay [10]: CCn1cc(-c2ccnc3[nH]c(-c4cccc(CN(C)C)c4)cc23)c(-c2ccc(NC(=O)N(C)C)cc2)n1
Put shortly: as §1

Compound in assay [11]: CN1CCC(CNc2ccc3ncc(-c4cccc(OC(F)(F)F)c4)n3n2)CC1
Put shortly:
as §1

Compound in assay [12]: CC1=C(C=C(C=C1)NC(=O)C2=CC(=CC=C2)N(C)C)NC(=O)C3=CC=C(C=C3)O
Put shortly: as §1

Compound in assay [13]: CCn1c(C(=O)N(C2CC2)C2CC2)cc2c3c(ncn3C)c(Nc3cc(C)n(C)n3)nc21
The method in brief: as §1

As to KIDINS220 isoform 2 (UniProt Q9ULH0), the log2 fold change in assay [1] is inactive: -0.342; in [2] it was inactive: -0.202; with Nexturastat A, inactive: -0.017; in the assay with vemurafenib, inactive: -0.449; in the assay with barasertib, inactive: -0.075; in [3] it was inactive: -0.182. For the same target, the log2 fold change was inactive: -0.037 with epoxomicin, inactive: -0.186 in assay [4], inactive: -0.063 in the assay with rosiglitazone and inactive: 0.11 in [5].
KCNK5 (UniProt O95279): the log2 fold change in [1] was inactive: -0.114; in [6] it was inactive: 0.195; in assay [2], inactive: 0.084; in the assay with Nexturastat A it was inactive: 0.106; in assay [7], inactive: 0.1; in assay [8], inactive: 0.157. The log2 fold change is inactive: -0.319 in the assay with givinostat; inactive: 0.097 in the assay with barasertib; inactive: -0.042 in [9]; inactive: -0.174 with volasertib; inactive: 0.046 with epoxomicin; inactive: 0.047 in assay [10]. Moreover, the log2 fold change in assay [5] is inactive: 0.223; in assay [11], inactive: -0.073.
For the target KLHL7 isoform 3 (UniProt Q8IXQ5), the log2 fold change is inactive: -0.062 in [1]; inactive: -0.056 in [6]; inactive: 0.311 in assay [2]; inactive: -0.153 with Nexturastat A; inactive: -0.179 in [7]; inactive: 0.145 in [8]. Also, the log2 fold change in the assay with barasertib is inactive: 0.122; with volasertib, inactive: 0.088; in assay [3], inactive: -0.213; in the assay with epoxomicin it was inactive: 0.1; with rosiglitazone, inactive: 0.004; in [5], inactive: -0.361.
Take KMT2C isoform 3 (UniProt Q8NEZ4): the log2 fold change in [1] is inactive: -0.053; in [12], inactive: -0.07; with Nexturastat A, inactive: -0.046; with vemurafenib it was inactive: -0.103; in assay [8] it was inactive: -0.033; with givinostat, inactive: 0.011. Moreover, the log2 fold change with barasertib was inactive: -0.003; in assay [9], active: -0.908; in [3], inactive: -0.02; in the assay with epoxomicin, inactive: -0.004; in assay [10], inactive: 0.031; in [4] it was inactive: 0. In addition, the log2 fold change in assay [5] is inactive: 0.026; in assay [11], active: -0.337.
Consider ITSN1 (UniProt Q15811), for which the log2 fold change was inactive: -0.295 in [1]; inactive: -0.025 in [6]; inactive: -0.193 in the assay with Nexturastat A; inactive: 0.094 in assay [7]; inactive: -0.037 in assay [8]; inactive: 0.14 in the assay with volasertib. In addition, the log2 fold change was inactive: 0.097 in the assay with epoxomicin, inactive: -0.172 in [10] and inactive: -0.302 in [11].
As to JMJD7 (UniProt P0C870), the log2 fold change was inactive: 0.064 in assay [1]; inactive: 0.002 with Nexturastat A; inactive: -0.017 with givinostat; inactive: 0.135 in the assay with barasertib; inactive: -0.006 in assay [9]; inactive: 0.031 in assay [3]. Also, the log2 fold change with epoxomicin is inactive: 0.059; in [13], inactive: -0.066; in the assay with rosiglitazone it was inactive: -0.248; in assay [5] it was inactive: -0.05.
In the case of KDM6A (UniProt O15550), the log2 fold change was inactive: 0.001 in assay [12]; inactive: 0.01 in assay [6]; inactive: -0.498 in the assay with Nexturastat A; inactive: -0.017 with vemurafenib; inactive: -0.118 in assay [7]; inactive: -0.08 in the assay with volasertib. Besides, the results for the log2 fold change (with epoxomicin; in [4]; in [5]) were inactive: -0.052, inactive: -0.129 and inactive: 0.059, respectively.
KIF13B (UniProt Q9NQT8): the log2 fold change in assay [1] was inactive: -0.046; in assay [6] it was inactive: 0.12; in assay [2], inactive: -0.041; in the assay with Nexturastat A it was inactive: 0.098; in assay [7], inactive: -0.056; in assay [8] it was inactive: 0.035. For the same target, the log2 fold change is inactive: -0.048 with givinostat; inactive: 0.033 in the assay with barasertib; inactive: 0.099 in assay [9]; inactive: -0.246 in the assay with volasertib; inactive: 0.045 with epoxomicin; inactive: 0.019 in assay [13]. Besides, the log2 fold change in [10] was inactive: 0.04; in the assay with rosiglitazone, inactive: 0.058; in [5] it was inactive: -0.001; in [11], inactive: 0.008.
On to KIAA1109 (UniProt Q2LD37), for which the log2 fold change in assay [1] was inactive: -0.069; in assay [2] it was inactive: -0.155; with givinostat, inactive: -0.032; in assay [9], inactive: -0.194; in assay [13], inactive: -0.085; in assay [10] it was inactive: 0.173. The log2 fold change in assay [11] was inactive: 0.003.
In the case of KIAA0513 (UniProt O60268), the log2 fold change in assay [1] is inactive: 0.026; in assay [6], inactive: 0.033; in [2], inactive: 0.007; with vemurafenib, inactive: 0.189; in assay [7] it was inactive: -0.068; in [8] it was inactive: -0.071. The log2 fold change with givinostat is inactive: 0.04; in the assay with barasertib, inactive: 0.063; with volasertib, inactive: -0.409; in [3], inactive: -0.014; in [13], inactive: -0.088; in assay [10], inactive: 0.052. Moreover, the values for the log2 fold change (in assay [4]; with rosiglitazone; in assay [11]) were inactive: -0.011, inactive: -0.17 and inactive: -0.336, respectively.
